Laboratory results taken from PubChem BioAssay AID248 (DTP/NCI, 2004).
The list shows only some results of the screen, not a fair sample: it is rich in T/C values a quarter to a half above the control, in often repeated tests (any T/C) and in doses without a T/C. Further doses and runs are listed elsewhere. T/C: endpoint of the treated group in % of that of the vehicle group. Some entries give survivors of the animals treated and no T/C: the source files T/C as zero there, which appears to mark a toxic dose or a test without result, not a measured value. Some doses without a T/C left all or most animals alive at the check, yet need not have been tolerated: the source hardly ever lists a survival T/C far under the control, and the zero likely stands for such cases as well. Counts of survivors are from the toxicity check (mostly the fifth day) where no day follows; animals may have died later. Schedule codes are those of the source, read here as Q, the interval in days (D) or hours (H), X, the number of doses. Some schedules carry Z or #; the key to these is not given. For survival time, this PubChem deposit counts one and a half times the control or more as active, and values a quarter to a half above the control carry no call in these data; other NCI protocols may use other cut-offs.

Tested on: L1210 leukemia ip in BDF1 mice, survival T/C
Assay: NCI In Vivo Anticancer Drug Screen. Data for tumor model L1210 Leukemia (intraperitoneal) in B6D2F1 (BDF1) mice
Settings: higher T/C = longer survival
[1] = T/C endpoint: mean survival time, dose: 200.0 mg/kg/injection, schedule: Q01DX001 (ip), vehicle: carboxymethylcellulose (CMC)
[2] = T/C endpoint: mean survival time, dose: 400.0 mg/kg/injection, schedule: Q01DX001 (ip), vehicle: carboxymethylcellulose (CMC)
[3] = T/C endpoint: mean survival time, dose: 200.0 mg/kg/injection, schedule: Q01DX001 (ip), vehicle: saline
[4] = T/C endpoint: mean survival time, dose: 400.0 mg/kg/injection, schedule: Q01DX001 (ip), vehicle: saline
[5] = T/C endpoint: mean survival time, dose: 50.0 mg/kg/injection, schedule: Q01DX001 (ip), vehicle: saline

`CC(Cc1ccc(O)c(O)c1)C(C)Cc1ccc(O)c(O)c1` (stereo unspecified) was tested. Which survivor count (T/C endpoint: mean survival time, dose: 600.0 mg/kg/injection, schedule: Q01DX009 (ip), vehicle: saline) did it give?
Its survivor count is 3 of 6.

What about the survivor count (T/C endpoint: mean survival time, dose: 800.0 mg/kg/injection, schedule: Q01DX009 (ip), vehicle: saline) of the same compound?
Its survivor count is 4 of 6.

What does the source list for `CCCCOC(OCCCC)c1ccccc1`?
survivor count [1]: 4 of 4; survivor count [2]: 4 of 4

With `N=C(N)c1ccc(-c2cc3ccc(C(=N)N)cc3s2)cc1` as the compound, how does the survivor count (T/C endpoint: mean survival time, dose: 100.0 mg/kg/injection, schedule: Q04DX003 (ip), vehicle: saline) read?
The survivor count was 2 of 4.

And the survivor count (T/C endpoint: mean survival time, dose: 200.0 mg/kg/injection, schedule: Q04DX003 (ip), vehicle: saline)?
Its survivor count is 0 of 4.

What about the survivor count (T/C endpoint: mean survival time, dose: 400.0 mg/kg/injection, schedule: Q04DX003 (ip), vehicle: saline) of the same compound?
The survivor count was 0 of 4.

Which survivor count (T/C endpoint: mean survival time, dose: 40.0 mg/kg/injection, schedule: Q01DX001 (ip), vehicle: carboxymethylcellulose (CMC)) does the source give for `CCN(CC)CCCNc1cc(OC)cc2cccnc12` here?
The survivor count was 2 of 4.

What about the survivor count (T/C endpoint: mean survival time, dose: 80.0 mg/kg/injection, schedule: Q01DX001 (ip), vehicle: carboxymethylcellulose (CMC)) of the same compound?
The survivor count was 0 of 4.

What about the survivor count (T/C endpoint: mean survival time, dose: 100.0 mg/kg/injection, schedule: Q01DX001 (ip), vehicle: carboxymethylcellulose (CMC)) of the same compound?
Its survivor count is 0 of 4.

What about the survivor count [1] of the same compound?
Its survivor count is 0 of 4.

What about the survivor count [2] of the same compound?
Its survivor count is 0 of 4.

Which survivor count (T/C endpoint: mean survival time, dose: 300.0 mg/kg/injection, schedule: Q01DX001 (ip), vehicle: carboxymethylcellulose (CMC)) does the source give for `COc1c2ccoc2cc2oc(C)cc(=O)c12` here?
Its survivor count is 0 of 4.

`Brc1ccc(Br)c(-c2nnc(-c3cccc4ccccc34)o2)c1` was tested. Which survivor count [3] did it give?
Its survivor count is 5 of 6.

And the survivor count [4]?
The survivor count was 6 of 6.

For `CC(C)N=NCCO`, which survivor count (T/C endpoint: mean survival time, dose: 400.0 mg/kg/injection, schedule: Q01DX009 (ip), vehicle: Klucel (hydroxypropylcellulose) (HPC)) is on record?
The survivor count was 3 of 3.

Which survivor count (T/C endpoint: mean survival time, dose: 37.5 mg/kg/injection, schedule: Q01DX015 (ip), vehicle: methylcellulose (MC)) does the source give for `CCCSC(=O)N(CC)C(=NCC)c1ccc(NC(=O)c2ccc(C(=O)Nc3ccc(C(=NCC)N(CC)C(=O)SCCC)cc3)cc2)cc1` here?
Its survivor count is 6 of 6.

What about the survivor count (T/C endpoint: mean survival time, dose: 300.0 mg/kg/injection, schedule: Q01DX015 (ip), vehicle: methylcellulose (MC)) of the same compound?
The survivor count was 6 of 6.

Which results are given for `CS(=O)(=O)OCCN(CCOS(C)(=O)=O)c1cccc(N)c1`?
T/C (T/C endpoint: mean survival time, dose: 2.4 mg/kg/injection, schedule: Q01DX001 (ip), vehicle: saline): 131 % of control; T/C (T/C endpoint: mean survival time, dose: 3.6 mg/kg/injection, schedule: Q01DX001 (ip), vehicle: saline): 140 % of control; T/C (T/C endpoint: mean survival time, dose: 4.0 mg/kg/injection, schedule: Q01DX001 (ip), vehicle: saline): 138 % of control; T/C (T/C endpoint: mean survival time, dose: 5.3 mg/kg/injection, schedule: Q01DX001 (ip), vehicle: saline): 137 % of control; survivor count (T/C endpoint: mean survival time, dose: 8.0 mg/kg/injection, schedule: Q01DX001 (ip), vehicle: saline): 3 of 6; survivor count (T/C endpoint: mean survival time, dose: 10.0 mg/kg/injection, schedule: Q01DX001 (ip), vehicle: saline): 2 of 4; survivor count (T/C endpoint: mean survival time, dose: 12.0 mg/kg/injection, schedule: Q01DX001 (ip), vehicle: saline): 1 of 6; survivor count (T/C endpoint: mean survival time, dose: 20.0 mg/kg/injection, schedule: Q01DX001 (ip), vehicle: saline): 0 of 4; survivor count (T/C endpoint: mean survival time, dose: 40.0 mg/kg/injection, schedule: Q01DX001 (ip), vehicle: saline): 0 of 4; survivor count [5]: 0 of 6; survivor count (T/C endpoint: mean survival time, dose: 80.0 mg/kg/injection, schedule: Q01DX001 (ip), vehicle: saline): 0 of 4; survivor count (T/C endpoint: mean survival time, dose: 100.0 mg/kg/injection, schedule: Q01DX001 (ip), vehicle: saline): 0 of 6; survivor count [3]: 0 of 6; survivor count [4]: 0 of 6

`CCN(C(C)=O)c1ccc(S(=O)(=O)Cl)cc1` was tested. Which survivor count (T/C endpoint: mean survival time, dose: 400.0 mg/kg/injection, schedule: Q04DX003 (ip), vehicle: saline with Tween-80) did it give?
Its survivor count is 1 of 6.

How did the survivor count (T/C endpoint: mean survival time, dose: 75.0 mg/kg/injection, schedule: Q01DX009 (ip), vehicle: Klucel (hydroxypropylcellulose) (HPC)) turn out when `CCCCN(C)CCNc1cc(C)nc(/N=C(\N)Nc2ccc(Cl)c(Cl)c2)n1` was run?
The survivor count was 2 of 6.

Which T/C (T/C endpoint: mean survival time, dose: 0.37 mg/kg/injection, schedule: Q04DX002 (ip), vehicle: saline) does the source give for `CC1OCC(C[N+](C)(C)C)O1` (stereo unspecified) here?
Its T/C is 141 % of control.

What about the survivor count (T/C endpoint: mean survival time, dose: 3.0 mg/kg/injection, schedule: Q04DX002 (ip), vehicle: saline) of the same compound?
Its survivor count is 1 of 3.

What about the survivor count (T/C endpoint: mean survival time, dose: 6.0 mg/kg/injection, schedule: Q04DX002 (ip), vehicle: saline) of the same compound?
The survivor count was 0 of 3.

What about the survivor count (T/C endpoint: mean survival time, dose: 12.5 mg/kg/injection, schedule: Q04DX002 (ip), vehicle: saline) of the same compound?
Its survivor count is 0 of 3.

What about the survivor count (T/C endpoint: mean survival time, dose: 25.0 mg/kg/injection, schedule: Q04DX002 (ip), vehicle: saline) of the same compound?
The survivor count was 0 of 3.

What about the survivor count (T/C endpoint: mean survival time, dose: 50.0 mg/kg/injection, schedule: Q04DX002 (ip), vehicle: saline) of the same compound?
Its survivor count is 0 of 3.

What about the survivor count (T/C endpoint: mean survival time, dose: 100.0 mg/kg/injection, schedule: Q04DX002 (ip), vehicle: saline) of the same compound?
The survivor count was 0 of 3.

What about the survivor count (T/C endpoint: mean survival time, dose: 200.0 mg/kg/injection, schedule: Q04DX002 (ip), vehicle: saline) of the same compound?
The survivor count was 0 of 3.

What about the survivor count (T/C endpoint: mean survival time, dose: 400.0 mg/kg/injection, schedule: Q04DX002 (ip), vehicle: saline) of the same compound?
The survivor count was 3 of 3.

For `CN(CCO)Cc1ccc2ccccc2c1`, which survivor count (T/C endpoint: mean survival time, dose: 300.0 mg/kg/injection, schedule: Q01DX015 (ip), vehicle: saline) is on record?
The survivor count was 1 of 6.

How did the survivor count [5] turn out when `CC(=O)[O][Pb]([O]C(C)=O)([O]C(C)=O)[c]1ccccc1` was run?
Its survivor count is 3 of 4.

And the survivor count (T/C endpoint: mean survival time, dose: 100.0 mg/kg/injection, schedule: Q01DX009 (ip), vehicle: gum acacia)?
Its survivor count is 3 of 3.

What about the survivor count (T/C endpoint: mean survival time, dose: 200.0 mg/kg/injection, schedule: Q01DX009 (ip), vehicle: gum acacia) of the same compound?
The survivor count was 3 of 3.

What about the survivor count [4] of the same compound?
Its survivor count is 0 of 4.

What about the survivor count (T/C endpoint: mean survival time, dose: 400.0 mg/kg/injection, schedule: Q04DX002 (ip), vehicle: gum acacia) of the same compound?
Its survivor count is 1 of 3.

Which survivor count (T/C endpoint: median survival time, dose: 200.0 mg/kg/injection, schedule: Q01DX009 (ip), vehicle: Klucel (hydroxypropylcellulose) (HPC)) does the source give for `O=C1NC(=O)C2(CCc3ccc(N(CCCl)CCCl)cc32)N1` (stereo unspecified) here?
Its survivor count is 5 of 6.

What about the survivor count (T/C endpoint: median survival time, dose: 400.0 mg/kg/injection, schedule: Q01DX009 (ip), vehicle: Klucel (hydroxypropylcellulose) (HPC)) of the same compound?
The survivor count was 4 of 6.

How did the survivor count (T/C endpoint: mean survival time, dose: 200.0 mg/kg/injection, schedule: Q04DX002 (ip), vehicle: Klucel (hydroxypropylcellulose) (HPC)) turn out when `O=C(Nc1ccc(Cl)c(Cl)c1)C(Cl)Cl` was run?
Its survivor count is 3 of 3.

With `O=C1C2=C(C(=O)c3ccccc31)C(=O)C1CC=CCC1C2=O` (stereo unspecified) as the compound, how does the survivor count (T/C endpoint: mean survival time, dose: 30.0 mg/kg/injection, schedule: Q01DX009 (ip), vehicle: saline with Tween-80) read?
The survivor count was 6 of 6.

What about the survivor count (T/C endpoint: mean survival time, dose: 60.0 mg/kg/injection, schedule: Q01DX009 (ip), vehicle: saline with Tween-80) of the same compound?
The survivor count was 6 of 6.

What about the survivor count (T/C endpoint: mean survival time, dose: 90.0 mg/kg/injection, schedule: Q01DX009 (ip), vehicle: saline with Tween-80) of the same compound?
Its survivor count is 6 of 6.

What about the survivor count (T/C endpoint: mean survival time, dose: 180.0 mg/kg/injection, schedule: Q01DX009 (ip), vehicle: saline with Tween-80) of the same compound?
The survivor count was 6 of 6.

`O=C(c1ccccc1)c1c2ccccc2cc2ccccc12` was tested. Which survivor count (T/C endpoint: mean survival time, dose: 200.0 mg/kg/injection, schedule: Q01DX009 (ip), vehicle: saline with Tween-80) did it give?
The survivor count was 6 of 6.

Which results are given for `CC[n+]1cccc2ccccc21`?
survivor count [3]: 1 of 6; survivor count [4]: 0 of 6

For `NC(N)=NN=C(c1ccccc1)c1ccccc1`, which survivor count (T/C endpoint: mean survival time, dose: 120.0 mg/kg/injection, schedule: Q01DX Z (ip), vehicle: other) is on record?
The survivor count was 0 of 6.

For `Cc1ccc(C(=O)O)cc1`, which survivor count (T/C endpoint: mean survival time, dose: 400.0 mg/kg/injection, schedule: Q01DX009 (ip), vehicle: saline with Tween-80) is on record?
Its survivor count is 6 of 6.
